Data reported in publication PMC8576330.
Results are given in words; binding and its absence hold for the method and conditions named. In cells and extracts the contact can be indirect. Some results given as binding are weak or reduced against the parent protein; the word gives no strength.

Target: Yes-Associated Protein (YAP), endogenous (human (endogenous in HOS, MG63, G292, K-HOS)), P46937
Experiment: proximity ligation; in situ Duolink PLA on fixed osteosarcoma cells (HOS, MG63, G292; mock-, YAPS94A- and YAPS127A-stably transfected K-HOS) with antibodies against YAP and Smad3, in the presence or absence of TGF-β1 (5 ng/ml, 45 min in the methods, 1 h in the legend)
Settings: remark: other sources report otherwise

binding: binds
B1: Smad3, endogenous, P84022 1-425 (protein)
chain: MSSILPFTPPIVKRLLGWKKGEQNGQEEKWCEKAVKSLVKKLKKTGQLDELEKAITTQNVNTKCITIPRSLDGRLQVSHRKGLPHVIYCRLWRWPDLHSHHELRAMELCEFAFNMKKDEVCVNPYHYQRVETPVLPPVLVPRHTEIPAEFPPLDDYSHSIPENTNFPAGIEPQSNIPETPPPGYLSEDGETSDHQMNHSMDAGSPNLSPNPMSPAHNNLDLQPVTYCEPAFWCSISYYELNQRVGETFHASQPSMTVDGFTDPSNSERFCLGLLSNVNRNAAVELTRRHIGRGVRLYYIGGEVFAECLSDSAIFVQSPNCNQRYGWHPATVCKIPPGCNLKIFNNQEFAALLAQSVNQGFEAVYQLTRMCTIRMSFVKGWGAEYRRQTVTSTPCWIELHLNGPLQWLDKVLTQMGSPSIRCSSVS
